Results taken from patent US7834030B2, “Phenyl-[1,2,4]-oxadiazol-5-one derivatives, pharmaceutical compositions and therapeutic use thereof” (Sanofi-Aventis, priority 2005, dated 2010).
Some results were stated once for a whole list of compounds, not compound by compound.

Each molecule was assayed against T1, human PPARalpha (Homo sapiens, UniProt Q07869) (assay: cellular PPARalpha assay (GAL4 luciferase reporter, stably transfected HEK cell line)). Settings: limits printed with their own units (nM and μM); read-out: PPARalpha EC50 values, range over the examples.
T1 construct: human PPARalpha receptor (amino acids S167-Y468); expressed in transfected cells; plasmid pcDNA3
T1 sequence (Q07869 167-468): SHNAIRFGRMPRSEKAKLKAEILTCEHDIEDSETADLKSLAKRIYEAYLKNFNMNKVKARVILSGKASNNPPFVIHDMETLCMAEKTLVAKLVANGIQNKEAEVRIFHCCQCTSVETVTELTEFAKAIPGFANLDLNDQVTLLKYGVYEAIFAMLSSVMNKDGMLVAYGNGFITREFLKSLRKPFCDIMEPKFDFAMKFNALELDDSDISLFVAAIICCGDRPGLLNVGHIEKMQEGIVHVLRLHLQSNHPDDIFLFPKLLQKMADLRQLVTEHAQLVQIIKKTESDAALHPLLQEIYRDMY
Type: cell-based
Method: The activity of the compounds was tested through the determination of EC50 values of PPAR agonists in the cellular PPARalpha assay. The potency of substances which bind to human PPARalpha and activate it in an agonistic manner was analyzed using a stably transfected HEK cell line (HEK=human embryo kidney) which is referred to here as PPARalpha reporter cell line. It contains two genetic elements, a luciferase reporter element (pdeltaM-GAL4-Luc-Zeo) and a PPARalpha fusion protein (GR-GAL4-humanPPARalpha-LBD) which mediates expression of the luciferase reporter element depending on a PPARalpha ligand. The stably and constitutively expressed fusion protein GR-GAL4-humanPPARalpha-LBD binds in the cell nucleus of the PPARalpha reporter cell line via the GAL4 protein portion to the GAL4 DNA binding motifs 5′-upstream of the luciferase reporter element which is stably integrated in the genome of the cell line. There is only weak expression of the luciferase reporter gene in the absence of a PPARalpha ligand if fatty acid-depleted fetal calf serum (cs-FCS) is used in the assay. PPARalpha ligands bind and activate the PPARalpha fusion protein and thereby stimulate the expression of the luciferase reporter gene. The luciferase which is formed can be detected by means of chemiluminescence via an appropriate substrate.
The PPARalpha reporter cell line was prepared in two stages. Firstly, the luciferase reporter element was constructed and stably transfected into HEK cells. For this purpose, five binding sites of the yeast transcription factor GAL4 (Accession # AF264724) were cloned in 5′-upstream of a 68 bp-long minimal MMTV promoter (Accession # V01175). The minimal MMTV promoter section contains a CCAAT box and a TATA element in order to enable efficient transcription by RNA polymerase II. The cloning and sequencing of the GAL4-MMTV construct took place in analogy to the description of Sambrook J. et. al. (Molecular cloning, Cold Spring Harbor Laboratory Press, 1989). Then the complete Photinus pyralis gene (Accession # M15077) was cloned in 3′-downstream of the GAL4-MMTV element. After sequencing, the luciferase reporter element consisting of five GAL4 binding sites, MMTV promoter and luciferase gene was recloned into a plasmid which confers zeocin resistance in order to obtain the plasmid pdeltaM-GAL4-Luc-Zeo. This vector was transfected into HEK cells in accordance with the statements in Ausubel, F. M. et al. (Current protocols in molecular biology, Vol. 1-3, John Wiley & Sons, Inc., 1995).
In a second step, the PPARalpha fusion protein (GR-GAL4-humanPPARalpha-LBD was introduced into the stable cell clone described. For this purpose, initially the cDNA coding for the N-terminal 76 amino acids of the glucocorticoid receptor (Accession # P04150) was linked to the cDNA section coding for amino acids 1-147 of the yeast transcription factor GAL4 (Accession # P04386). The cDNA of the ligand-binding domain of the human PPARalpha receptor (amino acids S167-Y468; Accession # S74349) was cloned in at the 3′-end of this GR-GAL4 construct. The fusion construct prepared in this way (GR-GAL4-humanPPARalpha-LBD) was recloned into the plasmid pcDNA3 (Invitrogen) in order to enable constitutive expression therein by the cytomegalovirus promoter. This plasmid was linearized with a restriction endonuclease and stably transfected into the previously described cell clone containing the luciferase reporter element. The finished PPARalpha reporter cell line which contains a luciferase reporter element and constitutively expresses the PPARalpha fusion protein (GR-GAL4-human PPARalpha-LBD) was isolated by selection with zeocin (0.5 mg/ml) and G418 (0.5 mg/ml).
The activity of PPARalpha agonists was determined in a 3-day assay, which is described below: […]

EC50, ≥ 5 nM:
Cc1nc(-c2ccc(C(F)(F)F)cc2)sc1C(Oc1ccc(-c2noc(=O)[nH]2)c(Cl)c1)c1ccccc1 (racemic) [Example 6, 3-(2-Chloro-4-{[4-methyl-2-(4-trifluoromethyl-phenyl)-thiazol-5-yl]-phenyl-methoxy}-Phenyl)-4H-[1,2,4]oxadiazol-5-one]
Cc1nc(-c2ccc(C(F)(F)F)cc2)sc1C(Cc1ccccn1)Oc1ccc(-c2noc(=O)[nH]2)c(Cl)c1 (racemic) [Example 10, 3-(2-Chloro-4-{1-[4-methyl-2-(4-trifluoromethyl-phenyl)-thiazol-5-yl]-2-pyridin-2-yl-ethoxy}-phenyl)-4H-[1,2,4]oxadiazol-5-one]
CCOCc1cc(OC(CC)c2sc(-c3ccc(C(F)(F)F)cc3)nc2C)ccc1-c1noc(=O)[nH]1 (racemic) [Example 14, 3-(2-Ethoxymethyl-4-{1-[4-methyl-2-(4-trifluoromethyl-phenyl)-thiazol-5-yl]-propoxy}-Phenyl)-4H-[1,2,4]oxadiazol-5-one]
CCC(OCc1ccc(-c2noc(=O)[nH]2)c2ccccc12)c1sc(-c2ccc(C(F)(F)F)cc2)nc1C (racemic) [Example 29, 3-(4-{1-[4-Methyl-2-(4-trifluoromethyl-phenyl)-thiazol-5-yl]-propoxymethyl}-naphthalen-1-yl)-4H-[1,2,4]oxadiazol-5-one]
CCC(Oc1ccc(-c2noc(=O)[nH]2)c(OC(F)F)c1)c1sc(-c2ccc(C(F)(F)F)cc2)nc1C (racemic) [Example 37, 3-(2-Difluoromethoxy-4-{1-[4-methyl-2-(4-trifluoromethyl-phenyl)-thiazol-5-yl]-propoxy}-phenyl)-4H-1,2,4-oxadiazol-5-one]
CCC(Oc1ccc(-c2noc(=O)[nH]2)c(OC(F)F)c1)c1sc(-c2ccc(C(F)(F)F)cc2)nc1CN1CCC(C(F)(F)F)CC1 (racemic) [Example 45, 3-(2-Difluoromethoxy-4-{1-[2-(4-trifluoromethyl-phenyl)-4-(4-trifluoromethyl-Piperidin-1-ylmethyl)-thiazol-5-yl]-propoxy}-phenyl)-4H-1,2,4-oxadiazol-5-one]
Cc1nc(-c2ccc(C(F)(F)F)cc2)sc1C(Cc1ccc(F)cc1)Oc1ccc(-c2noc(=O)[nH]2)c(Cl)c1 (racemic) [Example 9, 3-(2-Chloro-4-[2-(4-fluoro-phenyl)-1-[4-methyl-2-(4-trifluoromethyl-phenyl)-thiazol-5-yl]-ethoxy]-phenyl)-4H-[1,24]oxadiazol-5-one]
CC[C@@H](Oc1cc(OC(F)F)c(-c2noc(=O)[nH]2)cc1F)c1sc(-c2ccc(C(F)(F)F)cc2)nc1C [Example 41, (+)-3-(2-Difluoromethoxy-5-fluoro-4-{(R)-1-[4-methyl-2-(4-trifluoromethyl-phenyl)-thiazol-5-yl]-propoxy}-phenyl)-4H-1,2,4-oxadiazol-5-one]
Cc1nc(-c2ccc(C(F)(F)F)cc2)oc1C(CCc1ccccc1)Oc1ccc(-c2noc(=O)[nH]2)c(Cl)c1 (racemic) [Example 8, 3-(2-Chloro-4-{1-[4-methyl-2-(4-trifluoromethyl-phenyl)-oxazol-5-yl]-3-phenyl-propoxy}-phenyl)-4H-[1,2,4]oxadiazol-5-one]
CCC(Oc1ccc(-c2noc(=O)[nH]2)c(O)c1)c1sc(-c2ccc(C(F)(F)F)cc2)nc1C (centres unmarked) [Example 39, 3-(2-Hydroxy-4-{1-[4-methyl-2-(4-trifluoromethyl-phenyl)-thiazol-5-yl]-propoxy}-phenyl)-4H-1,2,4-oxadiazol-5-one]
CCC(Oc1ccc(-c2noc(=O)[nH]2)c(C2CC2)c1)c1sc(-c2ccc(C(F)(F)F)cc2)nc1C (racemic) [Example 16, 3-(2-Cyclopropyl-4-{1-[4-methyl-2-(4-trifluoromethyl-Phenyl)-thiazol-5-yl]-propoxy}-phenyl)-4H-[1,2,4]oxadiazol-5-one]
CC[C@@H](Oc1ccc(-c2noc(=O)[nH]2)c(F)c1)c1sc(-c2ccc(C(F)(F)F)cc2)nc1CN1CCC(C(F)(F)F)CC1 [Example 36, (+)-3-(2-Fluoro-4-{(R)-1-[2-(4-trifluoromethyl-phenyl)-4-(4-trifluoromethyl-piperidin-1-ylmethyl)-thiazol-5-yl]-propoxy}-phenyl)-4H-1,2,4-oxadiazol-5-one]
CCC(Oc1ccc(-c2noc(=O)[nH]2)c(OCC(F)(F)F)c1)c1sc(-c2ccc(C(F)(F)F)cc2)nc1C (racemic) [Example 48, 3-[4-{1-[4-Methyl-2-(4-trifluoromethyl-phenyl)-thiazol-5-yl]-propoxy}-2-(2,2,2-trifluoro-ethoxy)-phenyl]-4H-1,2,4-oxadiazol-5-one]
Cc1nc(-c2ccc(C(F)(F)F)cc2)sc1C(C)Oc1ccc(-c2noc(=O)[nH]2)c(Cl)c1 (racemic) [Example 1, 3-(2-Chloro-4-{1-[4-methyl-2-(4-trifluoromethyl-phenyl)-thiazol-5-yl]-ethoxy}-phenyl)-4H-[1,2,4]oxadiazol-5-one]
CCC(Oc1ccc(-c2noc(=O)[nH]2)c(Cl)c1)c1sc(-c2ccc(C(F)(F)F)cc2)nc1C (racemic) [Example 4, 3-(2-Chloro-4-{1-[4-methyl-2-(4-trifluoromethyl-phenyl)-thiazol-5-yl]-propoxy}-phenyl)-4H-[1,2,4]oxadiazol-5-one]
Cc1nc(-c2ccc(C(F)(F)F)cc2)sc1C(OCc1ccc(-c2noc(=O)[nH]2)c(C2CC2)c1)C(F)(F)F (racemic) [Example 24, 3-(2-Cyclopropyl-4-{2,2,2-trifluoro-1-[4-methyl-2-(4-trifluoromethyl-Phenyl)-thiazol-5-yl]-ethoxymethyl}-phenyl)-4H-[1,2,4]oxadiazol-5-one]
CCC(Oc1ccc(-c2noc(=O)[nH]2)c(COC)c1)c1sc(-c2ccc(C(F)(F)F)cc2)nc1C (racemic) [Example 13, 3-(2-Methoxymethyl-4-{1-[4-methyl-2-(4-trifluoromethyl-phenyl)-thiazol-5-yl]-propoxy}-phenyl)-4H-[1,2,4]oxadiazol-5-one]
CCc1cc(OC(CC)c2sc(-c3ccc(C(F)(F)F)cc3)nc2C)ccc1-c1noc(=O)[nH]1 (racemic) [Example 15, 3-(2-Ethyl-4-[1-[4-methyl-2-(4-trifluoromethyl-phenyl)-thiazol-5-yl]-propoxy]-phenyl)-4H-[1,2,4]oxadiazol-5-one]
CCC(Oc1ccc(-c2noc(=O)[nH]2)c(OC)c1)c1sc(-c2ccc(C(F)(F)F)cc2)nc1C (racemic) [Example 38, 3-(2-Methoxy-4-{1-[4-methyl-2-(4-trifluoromethyl-phenyl)-thiazol-5-yl]-propoxy}-phenyl)-4H-1,2,4-oxadiazol-5-one]
Cc1nc(-c2ccc(C(F)(F)F)cc2)sc1C(OCc1ccc(-c2noc(=O)[nH]2)c(F)c1)C(F)(F)F (racemic) [Example 22, 3-(2-Fluoro-4-{2,2,2-trifluoro-1-[4-methyl-2-(4-trifluoromethyl-phenyl)-thiazol-5-yl]-ethoxymethyl}-phenyl)-4H-[1,2,4]oxadiazol-5-one]
